These results are taken from US20090233858A1.

The chains behind the UniProt entries cited, without tags or fusion partners. Where a name states a change or a piece, a line headed by the entry shows the natural chain unless it says otherwise.
UniProt P67774: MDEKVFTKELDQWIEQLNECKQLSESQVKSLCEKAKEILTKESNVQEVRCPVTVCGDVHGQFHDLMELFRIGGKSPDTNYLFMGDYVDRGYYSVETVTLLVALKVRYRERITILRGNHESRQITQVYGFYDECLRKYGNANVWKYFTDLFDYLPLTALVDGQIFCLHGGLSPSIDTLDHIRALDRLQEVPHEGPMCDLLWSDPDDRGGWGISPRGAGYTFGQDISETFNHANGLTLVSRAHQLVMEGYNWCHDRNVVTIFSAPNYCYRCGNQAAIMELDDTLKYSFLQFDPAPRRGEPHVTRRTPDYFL

These are yes or no findings as the source states them, for the method shown. Some entries that bind do so weakly or less than the wild type.

The target in the experiment is T1, PP2A regulatory subunit Bα (residues 1-447) (human) (UniProt P63151).
T1 sequence: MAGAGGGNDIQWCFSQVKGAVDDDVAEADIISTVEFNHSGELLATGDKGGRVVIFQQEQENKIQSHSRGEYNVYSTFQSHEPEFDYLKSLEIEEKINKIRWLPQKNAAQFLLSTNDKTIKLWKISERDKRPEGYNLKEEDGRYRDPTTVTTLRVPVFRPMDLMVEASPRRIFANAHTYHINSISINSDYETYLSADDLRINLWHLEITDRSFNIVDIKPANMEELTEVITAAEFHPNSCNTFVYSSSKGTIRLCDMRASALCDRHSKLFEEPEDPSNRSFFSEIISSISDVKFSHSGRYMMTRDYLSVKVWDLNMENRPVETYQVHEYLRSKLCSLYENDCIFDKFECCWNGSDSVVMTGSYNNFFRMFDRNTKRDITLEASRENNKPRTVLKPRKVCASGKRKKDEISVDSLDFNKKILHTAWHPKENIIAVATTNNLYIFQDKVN
Nature of the experiment: in vitro holoenzyme formation (Aα, Bα, truncated C), data not shown.

On to “carboxy-terminally truncated C subunit (from UniProt P67774 1-295) (enzyme)”, for which the binding entry is recorded as “binds”.
